{"source": "patent US20260216243A1", "binders": {"B1": {"name": "2RGT38 (VHH)", "VHH": "QVQLQESGGGLVQAGGSLRLSCAASGGPSGISTVAWFRQAPGKEREFVAAINWSGESTNYEDSVLGRFTISRDNAKNTVFLQMNSLTPEDTAVYVCTTTRDAGTRLGSRWYGPRTSAYENWGQGTQVTVSS"}}, "molecular_target": "T1, recombinant human interleukin 2 receptor gamma IL2Rγ (hIL2Rγ) fused to a His-tag (human) (UniProt P31785)", "T1 sequence": "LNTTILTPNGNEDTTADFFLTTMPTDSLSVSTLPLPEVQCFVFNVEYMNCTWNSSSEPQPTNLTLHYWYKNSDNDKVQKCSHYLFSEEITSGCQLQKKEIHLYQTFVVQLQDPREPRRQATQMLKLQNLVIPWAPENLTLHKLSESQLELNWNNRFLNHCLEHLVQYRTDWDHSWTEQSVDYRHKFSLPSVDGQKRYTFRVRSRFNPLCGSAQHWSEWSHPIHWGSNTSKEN", "experiment": "selected from the clones positive in ELISA of periplasmic extracts on coated human IL2Rγ-His", "note": "These are yes or no findings as the source states them, for the method shown. Some binding calls cover weakened binding; strength is not graded here. Where a sequence is shown, tags or fusion partners need not be part of it.", "data": [{"binder": "B1", "values": [{"measurement": "binding", "value": "binds"}]}]}
